# Results taken from PubChem BioAssay AID2685 (National Center for Advancing Translational Sciences (NCATS), 2010).
# This is one part of the list. Shown are side measurements of this screen, not its main read-out; they come without a call. Compounds called inactive in the main read-out are mostly missing here. Potencies come from curve fits of mixed quality, noted in brackets.
# Experiment: qHTS Assay for Lipid Storage Modulators in Drosophila S3 Cells;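 for cell number change: cells counted by Cell Tracker Red CMTPX staining in the red channel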
# Conditions: BODIPY lipid droplet fluorescence, 18-24 h; for cell number change: measured here: cell count max response, cells fed with added oleic acid
# Method in brief: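 Drosophila S3 cells loaded with oleic acid (400 uM, as added) and compounds at several concentrations; lipid droplets imaged by 488-nm laser-scanning cytometry, 500–530 nm intensity and object ratio to cell channel. Percent activity normalized to 20 uM Triacsin C.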
# [1] = measured here: lipid fluorescence (Fed channel) AC50, cells fed with added oleic acid
# [2] = measured here: cell number channel AC50, cells fed with added oleic acid
Structure (SMILES),cell number change [%],AC50 [1],AC50 [2]
CCN1CCN(C(=O)Cn2nc(C)c3sc4ccccc4c3c2=O)CC1,25,–,–
COc1ccccc1CNC(=O)CC1Sc2ccccc2NC1=O (centres undefined),14.6,–,–
C/C(CC(=O)Nc1ccc2c(c1)OCO2)=N\NC(=O)C(c1ccccc1)c1ccccc1,–,"1.84 µM [rising, partial curve]",–
COC(=O)c1c(N)sc(C(C)=O)c1C,-2.63,–,–
CCOc1ccc2nc(SCC(=O)N3CCCCCC3)c(C#N)cc2c1,5.62,"5.8 µM [rising, single point]",–
CC(C)n1cnc2c(Nc3cccc(Cl)c3)nc(N(CCO)CCCO)nc21,-7.4,–,–
O=C(NCCC1=CCCCC1)c1cnc2n(c1=O)CCS2,9.36,"0.461 µM [rising, full curve, poor fit]","0.291 µM [rising, partial curve, poor fit]"
COc1ccc(N2CCN(c3ncnc4c3cnn4-c3ccc(C)cc3C)CC2)cc1,-9.04,"0.411 µM [rising, partial curve, poor fit]",–
CC1CCCC(C)N1/N=C/C=C/c1ccccc1[N+](=O)[O-] (centres undefined),-18.6,–,–
CC1CCCN(S(=O)(=O)c2ccc(NC(=O)[C@@H]3CCCN3C(=O)c3cccs3)cc2)C1 (some centres undefined),10.5,"3.26 µM [falling, single point]",–
NC(=S)N/N=C/c1cccc(O)c1O,-21.1,"29.1 µM [falling, single point]",–
COc1ccc(Br)cc1/C=C/C(=O)c1ccc(NC(C)=O)cc1,-33.3,–,"9.2 µM [falling, partial curve]"
Cc1ccc(NC(=O)c2c([N+](=O)[O-])c(C(C)(C)C)nn2C)c(C)c1,-15.3,"1.3 µM [falling, full curve]",–
CCc1cccc(OCCN2CCCC2)c1,–,–,"2.31 µM [rising, single point]"
Cc1[nH]c2ccccc2c1C(=O)CN1CCN(c2ccc(Cl)cc2)CC1,–,"0.651 µM [rising, full curve]",–
COc1ccc2cc(CCN3C(=O)c4ccccc4C3=O)c(=O)[nH]c2c1,13.4,"2.06 µM [rising, full curve]",–
COc1cccc(-c2cc(C(=O)O)[nH]n2)c1,2.61,"0.259 µM [rising, full curve, poor fit]",–
C=C(C)c1cccc(C(C)(C)NC(=O)N2CCC(C(N)=O)CC2)c1,-37.2,–,"0.164 µM [falling, full curve]"
CCC1CCC(c2nnc(-c3ccc(Br)cc3)o2)CC1 (centres undefined),-31.4,–,"25.9 µM [falling, single point]"
O=C(c1ccc(CS(=O)Cc2cccc(Cl)c2)o1)N1CCN(C2CCCCC2)CC1 (centres undefined),–,"6.51 µM [falling, single point]",–
Cc1ccc(N2C(=O)C3C(C2=O)C2C=CC3C23CC3)c([N+](=O)[O-])c1 (centres undefined),5.02,–,–

Structure (SMILES),cell number change [%],AC50 [1],AC50 [2]
O=C(COC(=O)CNC(=O)c1ccc(Br)cc1)NCCC1=CCCCC1,-21.1,"0.58 µM [rising, single point]",–
CCOc1ccc(OCC)c(NC(=O)CSc2nnc(C3CC3)n2CC)c1,10.3,"5.17 µM [falling, single point]",–
Cc1c(NC2=CC(=O)CCC2)c(=O)n(-c2ccccc2)n1C,-14.8,"2.91 µM [falling, full curve]",–
COC(=O)C1=C(C)N(c2cccc(OC)c2)C(=O)/C1=C\c1ccco1,–,–,"0.731 µM [rising, single point]"
Cc1cc(Cl)c(S(N)(=O)=O)cc1OCC(N)=O,-0.671,–,"1.16 µM [falling, full curve]"
CCC1(CC)NC(=O)N(CC(=O)OC(C)C(=O)Nc2ccc(NC(C)=O)cc2)C1=O (centres undefined),12.2,"20.6 µM [falling, single point]",–
Cc1ccc(C)c(C(=O)NC(C)CCc2ccccc2)c1 (centres undefined),14.3,"0.00517 µM [falling, full curve, poor fit]","0.0259 µM [falling, full curve, poor fit]"
Cc1ccccc1Nc1cc(=O)oc2ccccc12,–,"6.51 µM [falling, single point]",–
COc1ccc(C(=O)N/N=C/C(C)c2ccccc2)cc1OC (centres undefined),-31.4,"23.1 µM [falling, single point]","20.6 µM [falling, single point]"
Cc1cccc(C)c1NC(=O)Cn1nnnc1N,-21.9,"6.51 µM [falling, full curve]",–
N#Cc1cc2c(nc1Cl)CCCC2,-33.3,–,"6.51 µM [rising, partial curve]"
Cc1nc2ccccc2nc(C)c1=NOCc1cccc(F)c1,-39.2,"13 µM [falling, single point]","2.06 µM [falling, partial curve]"
CCSc1cc(C2C(C(=O)OC)=C(C)NC3=C2C(=O)CCC3)c(C)o1 (centres undefined),61.2,"0.146 µM [rising, single point]","5.8 µM [rising, partial curve]"
COc1ccc(C(=O)N/N=C/c2ccc(N3CCOCC3)o2)cc1OC,6.54,"0.103 µM [falling, full curve, poor fit]",–
CCOC(=O)CCCNC(=O)COC(=O)CCC(=O)c1ccc(F)cc1,4.66,–,–
COc1ccc(N(C)C(=S)Nc2ccc3nc(C)c(C)nc3c2)cc1,12.7,"0.092 µM [rising, full curve, poor fit]",–
CSC(=S)N/N=C/c1c[nH]c2ccccc12,-6.49,"23.1 µM [falling, single point]",–
COc1cc(CN2CCCCCC2)cc(OC)c1O,18.2,"29.1 µM [rising, single point]",–
CCCn1c(N)c(C(=O)CN(C)CC(=O)Nc2ccccc2C(F)(F)F)c(=O)[nH]c1=O,–,"6.51 µM [falling, single point]",–
c1ccc2c(c1)oc1c(N3CCN(Cc4ccc5c(c4)OCO5)CC3)ncnc12,224,"1.16 µM [rising, partial curve]","5.8 µM [rising, partial curve]"

# Taken from above (eleven entries):
Structure (SMILES),cell number change [%],AC50 [1],AC50 [2]
COc1ccc(Br)cc1/C=C/C(=O)c1ccc(NC(C)=O)cc1,-33.3,–,"9.2 µM [falling, partial curve]"
Cc1ccc(NC(=O)c2c([N+](=O)[O-])c(C(C)(C)C)nn2C)c(C)c1,-15.3,"1.3 µM [falling, full curve]",–
CCc1cccc(OCCN2CCCC2)c1,–,–,"2.31 µM [rising, single point]"
Cc1[nH]c2ccccc2c1C(=O)CN1CCN(c2ccc(Cl)cc2)CC1,–,"0.651 µM [rising, full curve]",–
COc1ccc2cc(CCN3C(=O)c4ccccc4C3=O)c(=O)[nH]c2c1,13.4,"2.06 µM [rising, full curve]",–
COc1cccc(-c2cc(C(=O)O)[nH]n2)c1,2.61,"0.259 µM [rising, full curve, poor fit]",–
C=C(C)c1cccc(C(C)(C)NC(=O)N2CCC(C(N)=O)CC2)c1,-37.2,–,"0.164 µM [falling, full curve]"
CCC1CCC(c2nnc(-c3ccc(Br)cc3)o2)CC1 (centres undefined),-31.4,–,"25.9 µM [falling, single point]"
O=C(c1ccc(CS(=O)Cc2cccc(Cl)c2)o1)N1CCN(C2CCCCC2)CC1 (centres undefined),–,"6.51 µM [falling, single point]",–
Cc1ccc(N2C(=O)C3C(C2=O)C2C=CC3C23CC3)c([N+](=O)[O-])c1 (centres undefined),5.02,–,–
O=C(COC(=O)CNC(=O)c1ccc(Br)cc1)NCCC1=CCCCC1,-21.1,"0.58 µM [rising, single point]",–
